{"source": "paper PMC3088709", "about": "“Phosphorylation of the Yeast γ-Tubulin Tub4 Regulates Microtubule Function” (PLoS ONE, 2011)", "key": {"[1]": {"molecular_target": "T1, Spc97 with five copies of the FLAG epitope (S. cerevisiae) (UniProt P38863)", "T1 sequence": "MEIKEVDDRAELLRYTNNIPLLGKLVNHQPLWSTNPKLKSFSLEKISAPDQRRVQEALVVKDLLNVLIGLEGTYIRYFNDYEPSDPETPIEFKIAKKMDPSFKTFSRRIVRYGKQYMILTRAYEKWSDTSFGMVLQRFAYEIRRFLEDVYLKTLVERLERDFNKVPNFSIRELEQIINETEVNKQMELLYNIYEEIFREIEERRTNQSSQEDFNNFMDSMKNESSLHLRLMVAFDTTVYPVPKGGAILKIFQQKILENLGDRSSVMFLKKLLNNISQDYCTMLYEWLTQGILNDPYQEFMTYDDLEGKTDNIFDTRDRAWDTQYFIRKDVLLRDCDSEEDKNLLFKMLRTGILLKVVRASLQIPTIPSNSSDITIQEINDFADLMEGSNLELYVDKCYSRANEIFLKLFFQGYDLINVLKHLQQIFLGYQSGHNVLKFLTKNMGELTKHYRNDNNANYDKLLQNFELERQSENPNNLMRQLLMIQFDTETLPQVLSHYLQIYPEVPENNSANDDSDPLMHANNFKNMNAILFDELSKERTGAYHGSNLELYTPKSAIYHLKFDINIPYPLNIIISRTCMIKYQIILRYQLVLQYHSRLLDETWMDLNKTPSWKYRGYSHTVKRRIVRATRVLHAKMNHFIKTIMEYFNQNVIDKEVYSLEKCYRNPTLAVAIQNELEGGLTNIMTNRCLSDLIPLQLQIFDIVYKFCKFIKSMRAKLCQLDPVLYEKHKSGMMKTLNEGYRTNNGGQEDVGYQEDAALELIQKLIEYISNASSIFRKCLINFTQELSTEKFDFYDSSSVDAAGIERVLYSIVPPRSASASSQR", "assay": "co-IP; anti-FLAG immunoprecipitation of Spc97-5FLAG from lysates of SPC97-5FLAG TUB4-6HA cells carrying pRS305 with TUB4 alleles; Protein G Dynabeads, 4°C, 50 mM Tris-HCl pH 7.5, 150 mM NaCl, 0.1% Triton X-100; blots with anti-Spc98 and anti-Tub4"}, "Spc97-3HA": {"molecular_target": "T2, Spc97-3HA (S. cerevisiae, UniProt P38863 1-823)", "T2 construct": "Spc97, budding yeast; tagged with 3HA in the TUB4-AID strain; source: S. cerevisiae (TUB4-AID SPC97-3HA strain), in lysate", "T2 sequence (looked up)": "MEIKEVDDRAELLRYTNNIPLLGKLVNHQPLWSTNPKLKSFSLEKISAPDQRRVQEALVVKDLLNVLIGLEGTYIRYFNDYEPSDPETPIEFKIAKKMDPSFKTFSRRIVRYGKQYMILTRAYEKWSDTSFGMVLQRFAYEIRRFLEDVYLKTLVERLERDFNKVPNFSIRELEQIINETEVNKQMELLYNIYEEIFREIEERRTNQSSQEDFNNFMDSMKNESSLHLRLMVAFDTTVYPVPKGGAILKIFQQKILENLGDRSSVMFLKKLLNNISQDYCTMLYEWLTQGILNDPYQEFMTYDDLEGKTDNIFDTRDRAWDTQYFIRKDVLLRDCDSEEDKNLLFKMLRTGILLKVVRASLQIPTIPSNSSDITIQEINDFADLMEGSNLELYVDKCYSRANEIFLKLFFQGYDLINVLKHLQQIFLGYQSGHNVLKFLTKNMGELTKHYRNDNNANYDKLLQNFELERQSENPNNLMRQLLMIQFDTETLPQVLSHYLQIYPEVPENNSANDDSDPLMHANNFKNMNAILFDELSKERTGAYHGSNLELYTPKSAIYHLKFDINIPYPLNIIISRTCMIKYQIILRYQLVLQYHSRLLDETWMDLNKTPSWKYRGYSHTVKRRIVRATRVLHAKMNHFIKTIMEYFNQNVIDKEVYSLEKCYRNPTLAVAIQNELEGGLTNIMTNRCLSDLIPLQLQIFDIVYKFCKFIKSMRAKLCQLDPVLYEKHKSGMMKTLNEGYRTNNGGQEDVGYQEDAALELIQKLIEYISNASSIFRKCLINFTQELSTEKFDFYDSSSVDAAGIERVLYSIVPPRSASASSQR", "assay": "co-IP; anti-HA immunoprecipitation of Spc97-3HA from lysates of TUB4-AID SPC97-3HA cells carrying pRS305 with TUB4, tub4-S74E, tub4-S100E or tub4-S360D, after 2 h of 0.5 mM IAA at 30°C to deplete Tub4-AID; blots with anti-Tub4, anti-Spc98, anti-Spc110 and anti-HA, normalised to precipitated Spc97-3HA"}}, "note": "No constants are given. Whether binding was seen depends on the method and setting. Binding seen in cells or lysates may run through a third protein. Some binding calls cover weakened binding; strength is not graded here. Where a sequence is shown, tags or fusion partners need not be part of it.", "data": [{"binder": "Spc98 (protein, UniProt P53540 1-846) MELEPTLFGIIEALAPQLLSQSHLQTFVSDVVNLLRSSTKSATQLGPLIDFYKLQSLDSPETTIMWHKIEKFLDALFGIQNTDDMVKYLSVFQSLLPSNYRAKIVQKSSGLNMENLANHEHLLSPVRAPSIYTEASFENMDRFSERRSMVSSPNRYVPSSTYSSVTLRQLSNPYYVNTIPEEDILKYVSYTLLATTSALFPFDHEQIQIPSKIPNFESGLLHLIFEAGLLYQSLGYKVEKFRMLNISPMKKALIIEISEELQNYTAFVNNLVSSGTVVSLKSLYREIYENIIRLRIYCRFTEHLEELSGDTFLIELNIFKSHGDLTIRKIATNLFNSMISLYYEYLMNWLTKGLLRATYGEFFIAENTDTNGTDDDFIYHIPIEFNQERVPAFIPKELAYKIFMIGKSYIFLEKYCKEVQWTNEFSKKYHVLYQSNSYRGISTNFFEIINDQYSEIVNHTNQILNQKFHYRDVVFALKNILLMGKSDFMDALIEKANDILATPSDSLPNYKLTRVLQEAVQLSSLRHLMNSPRNSSVINGLDARVLDLGHGSVGWDVFTLDYILYPPLSLVLNVNRPFGRKEYLRIFNFLWRFKKNNYFYQKEMLKSNDIIRSFKKIRGYNPLIRDIINKLSRISILRTQFQQFNSKMESYYLNCIIEENFKEMTRKLQRTENKSQNQFDLIRLNNGTIELNGILTPKAEVLTKSSSSKPQKHAIEKTLNIDELESVHNTFLTNILSHKLFATNTSEISVGDYSGQPYPTSLVLLLNSVYEFVKVYCNLNDIGYEIFIKMNLNDHEASNGLLGKFNTNLKEIVSQYKNFKDRLYIFRADLKNDGDEELFLLSKSLR", "values": [{"measurement": "binding", "setting": "[1]", "value": "binds"}, {"measurement": "binding", "setting": "Spc97-3HA", "value": "binds"}]}, {"binder": "Tub4-S74E (natural protein, S. cerevisiae, UniProt P53378 1-473, looked up, Tub4, gamma-tubulin of budding yeast, phospho-mimicking mutant; source: S. cerevisiae, from integrated pRS305-tub4-S74E, in lysate) MGGEIITLQAGQCGNHVGKFLWSQLAKEHAIGTDGLSQLPDSSTERDDDTKPFFRENSRNKFTPRAIMMDSEPEVIADVENTFRGFFDPRNTWVASDGASAGNSWANGYDIGTRNQDDILNKIDKEIDSTDNFEGFQLLHSVAGGTGSGLGSNLLEALCDRYPKKILTTYSVFPARSSEVVVQSYNTILALRRLIEDSDATVVFDNASLLNISGKVFRNPNIDLQHTNQLISTIISSVTNSIRFPSYMYSSMSSIYSTLIPSPELHFLSPSFTPFTSDYIHDDIAHKGHSSYDVMLDLLDPSNSLVSTAMNNPTYFNVYNTIIGNVEPRQISRAMTKLQQRIKFPSWSSSAMHVNIGRRSPYLPLQPNENEVSGMMLSNMSTVVNVFENACNTFDKVFAKGAFLNNYNVGDLFQSMQNVQDEFAESREVVQSLMEDYVAAEQDSYLDDVLVDDENMVGELEEDLDADGDHKLV", "values": [{"measurement": "binding", "setting": "[1]", "value": "binds"}, {"measurement": "binding", "setting": "Spc97-3HA", "value": "binds"}]}, {"binder": "Tub4-S100E (protein, UniProt P53378 1-473) MGGEIITLQAGQCGNHVGKFLWSQLAKEHAIGTDGLSQLPDSSTERDDDTKPFFRENSRNKFTPRAIMMDSEPSVIADVENTFRGFFDPRNTWVASDGAEAGNSWANGYDIGTRNQDDILNKIDKEIDSTDNFEGFQLLHSVAGGTGSGLGSNLLEALCDRYPKKILTTYSVFPARSSEVVVQSYNTILALRRLIEDSDATVVFDNASLLNISGKVFRNPNIDLQHTNQLISTIISSVTNSIRFPSYMYSSMSSIYSTLIPSPELHFLSPSFTPFTSDYIHDDIAHKGHSSYDVMLDLLDPSNSLVSTAMNNPTYFNVYNTIIGNVEPRQISRAMTKLQQRIKFPSWSSSAMHVNIGRRSPYLPLQPNENEVSGMMLSNMSTVVNVFENACNTFDKVFAKGAFLNNYNVGDLFQSMQNVQDEFAESREVVQSLMEDYVAAEQDSYLDDVLVDDENMVGELEEDLDADGDHKLV", "values": [{"measurement": "binding", "setting": "[1]", "value": "binds"}, {"measurement": "binding", "setting": "Spc97-3HA", "value": "binds"}]}, {"binder": "Tub4-S360D (protein, UniProt P53378 1-473) MGGEIITLQAGQCGNHVGKFLWSQLAKEHAIGTDGLSQLPDSSTERDDDTKPFFRENSRNKFTPRAIMMDSEPSVIADVENTFRGFFDPRNTWVASDGASAGNSWANGYDIGTRNQDDILNKIDKEIDSTDNFEGFQLLHSVAGGTGSGLGSNLLEALCDRYPKKILTTYSVFPARSSEVVVQSYNTILALRRLIEDSDATVVFDNASLLNISGKVFRNPNIDLQHTNQLISTIISSVTNSIRFPSYMYSSMSSIYSTLIPSPELHFLSPSFTPFTSDYIHDDIAHKGHSSYDVMLDLLDPSNSLVSTAMNNPTYFNVYNTIIGNVEPRQISRAMTKLQQRIKFPSWSSSAMHVNIGRRDPYLPLQPNENEVSGMMLSNMSTVVNVFENACNTFDKVFAKGAFLNNYNVGDLFQSMQNVQDEFAESREVVQSLMEDYVAAEQDSYLDDVLVDDENMVGELEEDLDADGDHKLV", "values": [{"measurement": "binding", "setting": "[1]", "value": "binds"}, {"measurement": "binding", "setting": "Spc97-3HA", "value": "binds"}]}, {"binder": "Tub4 (yeast gamma-tubulin), wild type, untagged (protein, UniProt P53378 1-473) MGGEIITLQAGQCGNHVGKFLWSQLAKEHAIGTDGLSQLPDSSTERDDDTKPFFRENSRNKFTPRAIMMDSEPSVIADVENTFRGFFDPRNTWVASDGASAGNSWANGYDIGTRNQDDILNKIDKEIDSTDNFEGFQLLHSVAGGTGSGLGSNLLEALCDRYPKKILTTYSVFPARSSEVVVQSYNTILALRRLIEDSDATVVFDNASLLNISGKVFRNPNIDLQHTNQLISTIISSVTNSIRFPSYMYSSMSSIYSTLIPSPELHFLSPSFTPFTSDYIHDDIAHKGHSSYDVMLDLLDPSNSLVSTAMNNPTYFNVYNTIIGNVEPRQISRAMTKLQQRIKFPSWSSSAMHVNIGRRSPYLPLQPNENEVSGMMLSNMSTVVNVFENACNTFDKVFAKGAFLNNYNVGDLFQSMQNVQDEFAESREVVQSLMEDYVAAEQDSYLDDVLVDDENMVGELEEDLDADGDHKLV", "values": [{"measurement": "binding", "setting": "Spc97-3HA", "value": "binds"}]}, {"binder": "Tub4-S360A (protein, UniProt P53378 1-473) MGGEIITLQAGQCGNHVGKFLWSQLAKEHAIGTDGLSQLPDSSTERDDDTKPFFRENSRNKFTPRAIMMDSEPSVIADVENTFRGFFDPRNTWVASDGASAGNSWANGYDIGTRNQDDILNKIDKEIDSTDNFEGFQLLHSVAGGTGSGLGSNLLEALCDRYPKKILTTYSVFPARSSEVVVQSYNTILALRRLIEDSDATVVFDNASLLNISGKVFRNPNIDLQHTNQLISTIISSVTNSIRFPSYMYSSMSSIYSTLIPSPELHFLSPSFTPFTSDYIHDDIAHKGHSSYDVMLDLLDPSNSLVSTAMNNPTYFNVYNTIIGNVEPRQISRAMTKLQQRIKFPSWSSSAMHVNIGRRAPYLPLQPNENEVSGMMLSNMSTVVNVFENACNTFDKVFAKGAFLNNYNVGDLFQSMQNVQDEFAESREVVQSLMEDYVAAEQDSYLDDVLVDDENMVGELEEDLDADGDHKLV", "values": [{"measurement": "binding", "setting": "[1]", "value": "binds"}]}, {"binder": "Tub4 with six copies of the hemagglutinin epitope HA (protein, UniProt P53378 1-473) MGGEIITLQAGQCGNHVGKFLWSQLAKEHAIGTDGLSQLPDSSTERDDDTKPFFRENSRNKFTPRAIMMDSEPSVIADVENTFRGFFDPRNTWVASDGASAGNSWANGYDIGTRNQDDILNKIDKEIDSTDNFEGFQLLHSVAGGTGSGLGSNLLEALCDRYPKKILTTYSVFPARSSEVVVQSYNTILALRRLIEDSDATVVFDNASLLNISGKVFRNPNIDLQHTNQLISTIISSVTNSIRFPSYMYSSMSSIYSTLIPSPELHFLSPSFTPFTSDYIHDDIAHKGHSSYDVMLDLLDPSNSLVSTAMNNPTYFNVYNTIIGNVEPRQISRAMTKLQQRIKFPSWSSSAMHVNIGRRSPYLPLQPNENEVSGMMLSNMSTVVNVFENACNTFDKVFAKGAFLNNYNVGDLFQSMQNVQDEFAESREVVQSLMEDYVAAEQDSYLDDVLVDDENMVGELEEDLDADGDHKLV", "values": [{"measurement": "binding", "setting": "[1]", "value": "binds"}]}]}
